The values that follow come from PMC3117880.

The chains behind the UniProt entries cited, without tags or fusion partners.
UniProt P30280: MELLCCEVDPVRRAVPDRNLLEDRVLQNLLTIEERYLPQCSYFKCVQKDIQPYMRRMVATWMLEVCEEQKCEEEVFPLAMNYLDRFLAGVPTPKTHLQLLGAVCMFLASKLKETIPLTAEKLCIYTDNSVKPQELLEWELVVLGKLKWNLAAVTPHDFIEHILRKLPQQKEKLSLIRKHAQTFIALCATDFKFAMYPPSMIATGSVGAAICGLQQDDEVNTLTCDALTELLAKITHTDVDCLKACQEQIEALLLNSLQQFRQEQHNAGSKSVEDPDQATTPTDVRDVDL
UniProt Q64261: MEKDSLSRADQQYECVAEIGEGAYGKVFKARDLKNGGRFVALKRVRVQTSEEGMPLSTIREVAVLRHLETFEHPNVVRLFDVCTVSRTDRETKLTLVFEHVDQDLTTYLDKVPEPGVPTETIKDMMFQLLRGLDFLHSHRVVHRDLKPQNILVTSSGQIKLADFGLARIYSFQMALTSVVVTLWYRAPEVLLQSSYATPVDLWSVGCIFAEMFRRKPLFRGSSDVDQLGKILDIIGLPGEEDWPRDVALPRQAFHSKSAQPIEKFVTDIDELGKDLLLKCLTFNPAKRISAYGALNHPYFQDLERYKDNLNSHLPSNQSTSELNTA

The target of assay [1] is T1, cyclin D3 (mouse (endogenous in foetal liver HSPCs)) (UniProt P30282).
T1 sequence: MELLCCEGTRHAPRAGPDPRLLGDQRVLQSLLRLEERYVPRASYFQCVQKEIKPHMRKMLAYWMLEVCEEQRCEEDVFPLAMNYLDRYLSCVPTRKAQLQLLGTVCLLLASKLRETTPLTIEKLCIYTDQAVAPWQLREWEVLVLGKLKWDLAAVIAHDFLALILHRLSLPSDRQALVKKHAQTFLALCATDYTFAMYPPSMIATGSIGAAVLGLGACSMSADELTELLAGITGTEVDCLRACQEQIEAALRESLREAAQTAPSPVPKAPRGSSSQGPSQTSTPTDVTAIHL
Nature of the assay: co-IP; lysates of equal numbers of sorted GFP+ WT HSPCs expressing Fbxo7 or the empty MSCV vector, in HB buffer (50 mM Hepes pH 7.4, 150 mM NaCl, 20 mM EDTA, 1 mM DTT, 0.5% Triton-X-100); immunoprecipitated at 4°C for 4 hrs with anti-cyclin D2 or anti-cyclin D3, Protein A/G Plus agarose; western blot for Cdk6.

Assay [2] addresses cyclin D2 (mouse (endogenous in foetal liver HSPCs)) (UniProt P30280). The description is as above.

Results are given in words; binding and its absence hold for the method and conditions named. Binding seen in cells or lysates may run through a third protein. Some binding calls cover weakened binding; strength is not graded here.

In the case of Cdk6 (from UniProt Q64261 1-326), the binding entry in assay [1] and in assay [2] was “binds” in each case.
